Measured values from PMC12499419.
These are yes or no findings as the source states them, for the method shown. In cells and extracts the contact can be indirect. Binding can be weak; no strength is given. For some assays here: Tags and fused reporters may be left off the sequences shown. Each block holds one molecule with its values, some of them ahead of it.

Experiments:
[1] = biological target: T1, CHPT-HA (zebrafish CHPT) (zebrafish) (UniProt Q7ZW02); assay: co-IP; Seipin-Flag, CHPT-HA and CCTα-GFP overexpressed together in HEK293T cells; immunoprecipitation with anti-Flag or anti-HA antibodies; immunoblot
T1 sequence: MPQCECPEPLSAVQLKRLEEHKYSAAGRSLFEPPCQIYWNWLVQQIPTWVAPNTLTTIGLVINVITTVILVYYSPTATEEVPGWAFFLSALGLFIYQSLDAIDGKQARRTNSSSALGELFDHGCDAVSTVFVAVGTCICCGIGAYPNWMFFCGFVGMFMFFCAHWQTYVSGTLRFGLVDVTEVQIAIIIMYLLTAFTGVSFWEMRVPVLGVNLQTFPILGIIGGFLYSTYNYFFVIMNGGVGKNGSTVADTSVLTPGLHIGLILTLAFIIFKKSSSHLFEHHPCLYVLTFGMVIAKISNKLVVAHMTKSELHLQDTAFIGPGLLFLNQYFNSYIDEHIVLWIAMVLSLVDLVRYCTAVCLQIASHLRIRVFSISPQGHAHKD

[2] = biological target: Seipin-Flag (zebrafish Seipin) (zebrafish); assay: co-IP; Seipin-Flag and an HA-tagged partner co-transfected in HEK293T cells, harvested 36 h after transfection; lysate supernatant incubated with anti-HA agarose, anti-FLAG M2 affinity gel or IgG beads; eluted with HA or Flag peptides; immunoblot; in some panels cells treated with OA, BSA and PC (PC promoted the Seipin-Plin2 interaction)
[3] = biological target: Seipin-Flag (zebrafish Seipin) (zebrafish); assay: co-IP; Seipin-Flag, CHPT-HA and CCTα-GFP overexpressed together in HEK293T cells; immunoprecipitation with anti-Flag or anti-HA antibodies; immunoblot
[4] = biological target: Seipin-VN (zebrafish Seipin in the VN173 vector) (zebrafish); assay: split reporter; BiFC: Seipin-VN and a VC-fused partner (with Seipin-RFP) transfected in HEK293T cells; fixed after 36 h, confocal microscopy; cells incubated with BSA or OA

Molecule: Seipin-Flag (zebrafish Seipin)
binding [1]: binds

B1: CHPT-HA (zebrafish CHPT) (enzyme, UniProt Q7ZW02 1-382)
chain: T1 sequence
binding [2]: binds | binding [3]: binds

Further lines, results first:

binding [1]: binds
Molecule: CCTα-GFP (zebrafish CCTα) (enzyme)

binding [4]: binds
B2: CHPT-VC (zebrafish CHPT in the VC155 vector) (enzyme, UniProt Q7ZW02 1-382)
chain: T1 sequence
